In paper PMC10641178 one finds binding data, which are given here for one molecule.

Results are given in words; binding and its absence hold for the method and conditions named. In cells and extracts the contact can be indirect. For some assays here: A result given as binding can be weak or reduced; the word gives no strength.

In test [1] the target is His-tagged CC domain of RUFY3. Description: pull-down; in vitro pull-down of HPIP with His-tagged wt RUFY3 and RUFY3 domains (CC, RUN, FYVE); conditions not given.
Test [2] concerns the target His-tagged FYVE domain of RUFY3. Described as above.

B1: HPIP used in the in vitro pull-down with RUFY3 domains (protein, UniProt Q96AQ6 1-731)
chain: MASCPDSDNSWVLAGSESLPVETLGPASRMDPESERALQAPHSPSKTDGKELAGTMDGEGTLFQTESPQSGSILTEETEVKGTLEGDVCGVEPPGPGDTVVQGDLQETTVVTGLGPDTQDLEGQSPPQSLPSTPKAAWIREEGRCSSSDDDTDVDMEGLRRRRGREAGPPQPMVPLAVENQAGGEGAGGELGISLNMCLLGALVLLGLGVLLFSGGLSESETGPMEEVERQVLPDPEVLEAVGDRQDGLREQLQAPVPPDSVPSLQNMGLLLDKLAKENQDIRLLQAQLQAQKEELQSLMHQPKGLEEENAQLRGALQQGEAFQRALESELQQLRARLQGLEADCVRGPDGVCLSGGRGPQGDKAIREQGPREQEPELSFLKQKEQLEAEAQALRQELERQRRLLGSVQQDLERSLQDASRGDPAHAGLAELGHRLAQKLQGLENWGQDPGVSANASKAWHQKSHFQNSREWSGKEKWWDGQRDRKAEHWKHKKEESGRERKKNWGGQEDREPAGRWKEGRPRVEESGSKKEGKRQGPKEPPRKSGSFHSSGEKQKQPRWREGTKDSHDPLPSWAELLRPKYRAPQGCSGVDECARQEGLTFFGTELAPVRQQELASLLRTYLARLPWAGQLTKELPLSPAFFGEDGIFRHDRLRFRDFVDALEDSLEEVAVQQTGDDDEVDDFEDFIFSHFFGDKALKKRSGKKDKHSQSPRAAGPREGHSHSHHHHHRG
In the case of B1, the binding entry in test [1] is “binds”; in test [2], “no binding”.
